{"source": "PubChem BioAssay AID1259415", "about": "(National Center for Advancing Translational Sciences (NCATS), 2018)", "note": "Hit rate of the full screen: of about 410,000 compounds, about 18,000 (4.4%) were called active. Inconclusive results, whose numbers are uncertain, are shown with a selection of clear calls. Cut-off read from the data, not from the text of the source: active = activity change below about -60%; inconclusive = no clear call, values can overlap the other calls; inactive = above about -39%. % is set by controls: 0 for no effect and ±100 for the full control effect."}
{"experiment": "qHTS Assay for inhibitors of the human cytomegalovirus (HCMV)", "settings": "HFF cells, HCMV-luciferase reporter, 72 h; at 57.5 µM; stronger effect = lower value", "procedure,_shortened": "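Two compound doses tested in HFFs infected with HCMV-luciferase, MOI 1 PFU/cell, 72 h at 37C. Lysate luminescence read with OneGlo; data normalized against buffer-only and 10uM Salinomycin inhibitor controls.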"}
{"smiles": "[O-]c1ccccc1-[n+]1c(-c2ccccc2)cc(-c2ccccc2)cc1-c1ccccc1", "activity change, negative = inhibition": "active: -97%"}
{"smiles": "CCCCNC(=O)c1ccc2c(=O)n(CCCOCC)c(=S)[nH]c2c1", "activity change, negative = inhibition": "inactive: -4.94%"}
{"smiles": "Cc1ccc2sc(-c3ccc(N)cc3)nc2c1", "activity change, negative = inhibition": "inconclusive: -43.9%"}
{"smiles": "Cc1ccc(NC(=O)CN2C(=O)c3ccccc3S2(=O)=O)cc1C", "activity change, negative = inhibition": "inconclusive: -54.3%"}
{"smiles": "COc1ccccc1-n1c(SC)nc(O)cc1=O", "activity change, negative = inhibition": "inactive: 28%"}
{"smiles": "COc1ccccc1NS(=O)(=O)c1ccc(NC(=O)c2ccccn2)cc1", "activity change, negative = inhibition": "inconclusive: -41.6%"}
{"smiles": "COc1ccc(NS(=O)(=O)c2cccc(C(=O)NNC(=O)c3ccccc3O)c2)cc1", "activity change, negative = inhibition": "active: -94.4%"}
{"smiles": "Cc1ccc(S(=O)(=O)CCSc2n[nH]c(=O)n2-c2ccccc2)cc1", "activity change, negative = inhibition": "inconclusive: -46.2%"}
{"smiles": "COc1ccc(C(c2sc3nc(C)nn3c2O)N2CCN(Cc3ccccc3)CC2)cc1OC", "note": "(stereo unspecified)", "activity change, negative = inhibition": "inactive: 4.63%"}
{"smiles": "CCN(CC(=O)Nc1c(F)cccc1F)C(=O)C(C)SCc1nc2sc(C)c(C)c2c(=O)[nH]1", "note": "(stereo unspecified)", "activity change, negative = inhibition": "inconclusive: -47.2%"}
{"smiles": "CCc1cc(C(=O)NNC(=S)NC(C)c2ccccc2)cs1", "note": "(stereo unspecified)", "activity change, negative = inhibition": "active: -73.1%"}
{"smiles": "O=C(Nc1ccc(F)c(Cl)c1)c1ccc2sc([C@H]3C[C@H](O)[C@@H](CO)O3)nc2c1", "activity change, negative = inhibition": "inconclusive: -46%"}
{"smiles": "CC(c1n[nH]c(=S)n1-c1ccccc1)N1CCCCC1", "note": "(stereo unspecified)", "activity change, negative = inhibition": "inconclusive: -59%"}
{"smiles": "S=C(NCc1ccco1)Nc1cc(Cl)c(Cl)cc1Cl", "activity change, negative = inhibition": "inconclusive: -59.8%"}
{"smiles": "N#CCc1nc(C(c2ccccc2)c2ccccc2)no1", "activity change, negative = inhibition": "inconclusive: -51.6%"}
{"smiles": "O=c1c2ccc(Cl)cc2nc(-c2cccc(C(F)(F)F)c2)n1O", "activity change, negative = inhibition": "active: -103%"}
{"smiles": "COc1ccc2c(CC(=O)NNC(=O)c3ccc(O)cc3)coc2c1", "activity change, negative = inhibition": "inconclusive: -41%"}
{"smiles": "CCOc1ccc(S(=O)(=O)NCCC(=O)N2CC=C(c3ccccc3)CC2)cc1", "activity change, negative = inhibition": "inconclusive: -42.6%"}
{"smiles": "COc1ccc(C(=O)Nc2ccccc2C(=O)NCc2ccco2)cc1", "activity change, negative = inhibition": "inconclusive: -42.1%"}
{"smiles": "COc1ccc(-[n+]2c(C)cc(/C=C3\\Sc4ccccc4N3C)cc2C)cc1", "activity change, negative = inhibition": "active: -98.8%"}
{"smiles": "Nc1ccc2c(Cl)cc(Cl)cc2c1", "activity change, negative = inhibition": "inactive: -25.8%"}
{"smiles": "COc1ccc(NC(=O)CSc2nnc3c4c(nc(-c5ccccc5)n23)CC(C)(C)OC4)cc1", "activity change, negative = inhibition": "inconclusive: -55.8%"}
{"smiles": "Cc1ccc(C)c(Cn2c(O)c(N=NC(=S)Nc3ccccc3F)c3ccccc32)c1", "activity change, negative = inhibition": "inactive: 4.14%"}
{"smiles": "COc1cccc(C2c3[nH]c4ccccc4c3CCN2CCCn2cccn2)c1", "note": "(stereo unspecified)", "activity change, negative = inhibition": "inactive: -10.4%"}
{"smiles": "COC(=O)c1ccc(NCC(=O)Nc2cc(C)cc(C)c2)cc1", "activity change, negative = inhibition": "inconclusive: -50%"}
{"smiles": "COc1ccc(CCNC(=O)Cn2cnc3scc(-c4ccccc4)c3c2=O)cc1OC", "activity change, negative = inhibition": "active: -102%"}
{"smiles": "CCOC(=O)[C@]12Cc3c(cc(OC)c(OC)c3OC)[C@H]1N(C1CCCCC1)C(=O)c1cc(OC)ccc12", "activity change, negative = inhibition": "active: -99.3%"}
{"smiles": "CSc1ccc(C(O)c2ncc(-c3cccc(OCc4ccccc4)c3)[nH]2)cc1", "note": "(stereo unspecified)", "activity change, negative = inhibition": "inconclusive: -50.4%"}
{"smiles": "Cc1nc(SC(C)C(=O)NC2CCCC2)c2ccccc2n1", "note": "(stereo unspecified)", "activity change, negative = inhibition": "inactive: -6.56%"}
{"smiles": "NC(=O)C1CCCN(C(=O)c2ccc(Cl)c(S(=O)(=O)N3CCc4ccccc43)c2)C1", "note": "(stereo unspecified)", "activity change, negative = inhibition": "inconclusive: -42.3%"}
{"smiles": "CCCCNC(=O)CCn1nc(-c2ccccc2)ccc1=O", "activity change, negative = inhibition": "inconclusive: -51.8%"}
{"smiles": "CC(=O)c1c(C)[nH]c(C(=O)CSc2ccc(F)cc2)c1C", "activity change, negative = inhibition": "inconclusive: -56.9%"}
{"smiles": "CN(Cc1ccccc1)CC(O)COc1ccc(CNCCc2cccnc2)cc1", "note": "(stereo unspecified)", "activity change, negative = inhibition": "inconclusive: -45.1%"}
{"smiles": "CCOC(=O)C1CCC(CN(Cc2ccccc2)S(=O)(=O)c2ccc([N+](=O)[O-])cc2)CC1", "note": "(stereo unspecified)", "activity change, negative = inhibition": "inactive: 49.9%"}
{"smiles": "CCC1CCCCN1CCCNC(=O)Cn1nc(C)n2nc(-c3ccccc3)cc2c1=O", "note": "(stereo unspecified)", "activity change, negative = inhibition": "inconclusive: -58.8%"}
{"smiles": "Brc1ccc(-[n+]2c(-c3ccccc3)cc(-c3ccccc3)cc2-c2ccccc2)cc1", "activity change, negative = inhibition": "active: -98.2%"}
{"smiles": "CN(C)S(=O)(=O)c1ccc(C(=O)OCC2COC(C)(C)O2)cc1", "note": "(stereo unspecified)", "activity change, negative = inhibition": "inconclusive: -48.4%"}
{"smiles": "CCOc1ccc(Cc2onc3c2C(=O)CCC3)cc1OCC", "activity change, negative = inhibition": "active: -89.1%"}
{"smiles": "N#Cc1ccc(CSc2nnc(-c3ccncc3)o2)cc1", "activity change, negative = inhibition": "inconclusive: -59.2%"}
{"smiles": "Cc1c(C(=O)N(CCc2ccccc2)Cc2ccccc2)cccc1[N+](=O)[O-]", "activity change, negative = inhibition": "inactive: 27.6%"}
{"smiles": "O=c1c2ccccc2cnn1Cc1n[nH]c(=S)n1C1CC2CCC1C2", "note": "(stereo unspecified)", "activity change, negative = inhibition": "inconclusive: -47.1%"}
{"smiles": "Cc1ccc(C)c(OCCCC(=O)O)c1", "activity change, negative = inhibition": "inactive: -3.4%"}
{"smiles": "CC1C=CCC2C(=O)N(c3ccccc3OC(=O)c3cccs3)C(=O)C12", "note": "(stereo unspecified)", "activity change, negative = inhibition": "inconclusive: -59.2%"}
{"smiles": "COc1cccc(CN(C)C(=O)c2cc(-c3cccs3)nc3ccccc23)c1", "activity change, negative = inhibition": "inconclusive: -41.7%"}
{"smiles": "Cc1cccc(C(=O)Oc2ccc(/C=N/NC(=O)c3cc(O)cc(O)c3)cc2)c1", "activity change, negative = inhibition": "inconclusive: -47.5%"}
{"smiles": "Cc1ccc2cccc(OCC(=O)N3CCc4ccccc43)c2n1", "activity change, negative = inhibition": "inconclusive: -47.6%"}
{"smiles": "COC(=O)C1CCN(C(=O)C2CCC(=O)N(CCCc3ccccc3)C2)CC1", "note": "(stereo unspecified)", "activity change, negative = inhibition": "inconclusive: -56.5%"}
{"smiles": "O=C(Nc1ccccc1)c1cc(S(=O)(=O)Nc2cccnc2)ccc1Cl", "activity change, negative = inhibition": "inactive: -19.9%"}
{"smiles": "O=C(NCCCN1CCCC1)[C@H](CSCc1ccccc1)N1Cc2ccccc2C1=O", "activity change, negative = inhibition": "inconclusive: -42.7%"}
{"smiles": "O=C(NCc1ccc2c(c1)OCO2)c1c(O)nc2sccn2c1=O", "activity change, negative = inhibition": "inconclusive: -47.2%"}
{"smiles": "CCOc1ccc(C(C)=O)cc1CN1C(=O)C(=O)N(CC)C1=O", "activity change, negative = inhibition": "inconclusive: -51.1%"}
{"smiles": "COc1ccc(S(=O)(=O)c2c(Nc3cccc(C)c3C)sc(C(=O)c3ccccc3)c2N)cc1", "activity change, negative = inhibition": "inconclusive: -41.1%"}
{"smiles": "Cc1ccc(Nc2nc(-c3ccncc3)cs2)cc1", "activity change, negative = inhibition": "inactive: 111%"}
{"smiles": "COc1cc(CNn2nnnc2N)ccc1OCc1c(Cl)cccc1Cl", "activity change, negative = inhibition": "inconclusive: -56.8%"}
{"smiles": "COc1ccc(CCN=C(N)NS(=O)(=O)c2cccs2)cc1", "activity change, negative = inhibition": "inconclusive: -51.7%"}
{"smiles": "Cc1ccn2c(=O)nc(SCC(=O)NCCc3ccccc3)nc2c1", "activity change, negative = inhibition": "inactive: 7.45%"}
